In article doi:10.1101/2023.02.16.528810:
No constants are given. Whether binding was seen depends on the method and setting. Binding seen in cells or lysates may run through a third protein. A yes stands for co-enrichment or nearness to the bait. Other partners may have been found.

Protein sequences, listed by entry. Tags and fused reporters are not part of them.
UniProt P41208: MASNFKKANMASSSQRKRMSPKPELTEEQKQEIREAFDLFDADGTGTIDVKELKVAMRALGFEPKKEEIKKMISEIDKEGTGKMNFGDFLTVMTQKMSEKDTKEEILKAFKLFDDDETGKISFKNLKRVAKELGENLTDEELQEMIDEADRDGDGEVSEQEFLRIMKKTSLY
UniProt Q4AC94: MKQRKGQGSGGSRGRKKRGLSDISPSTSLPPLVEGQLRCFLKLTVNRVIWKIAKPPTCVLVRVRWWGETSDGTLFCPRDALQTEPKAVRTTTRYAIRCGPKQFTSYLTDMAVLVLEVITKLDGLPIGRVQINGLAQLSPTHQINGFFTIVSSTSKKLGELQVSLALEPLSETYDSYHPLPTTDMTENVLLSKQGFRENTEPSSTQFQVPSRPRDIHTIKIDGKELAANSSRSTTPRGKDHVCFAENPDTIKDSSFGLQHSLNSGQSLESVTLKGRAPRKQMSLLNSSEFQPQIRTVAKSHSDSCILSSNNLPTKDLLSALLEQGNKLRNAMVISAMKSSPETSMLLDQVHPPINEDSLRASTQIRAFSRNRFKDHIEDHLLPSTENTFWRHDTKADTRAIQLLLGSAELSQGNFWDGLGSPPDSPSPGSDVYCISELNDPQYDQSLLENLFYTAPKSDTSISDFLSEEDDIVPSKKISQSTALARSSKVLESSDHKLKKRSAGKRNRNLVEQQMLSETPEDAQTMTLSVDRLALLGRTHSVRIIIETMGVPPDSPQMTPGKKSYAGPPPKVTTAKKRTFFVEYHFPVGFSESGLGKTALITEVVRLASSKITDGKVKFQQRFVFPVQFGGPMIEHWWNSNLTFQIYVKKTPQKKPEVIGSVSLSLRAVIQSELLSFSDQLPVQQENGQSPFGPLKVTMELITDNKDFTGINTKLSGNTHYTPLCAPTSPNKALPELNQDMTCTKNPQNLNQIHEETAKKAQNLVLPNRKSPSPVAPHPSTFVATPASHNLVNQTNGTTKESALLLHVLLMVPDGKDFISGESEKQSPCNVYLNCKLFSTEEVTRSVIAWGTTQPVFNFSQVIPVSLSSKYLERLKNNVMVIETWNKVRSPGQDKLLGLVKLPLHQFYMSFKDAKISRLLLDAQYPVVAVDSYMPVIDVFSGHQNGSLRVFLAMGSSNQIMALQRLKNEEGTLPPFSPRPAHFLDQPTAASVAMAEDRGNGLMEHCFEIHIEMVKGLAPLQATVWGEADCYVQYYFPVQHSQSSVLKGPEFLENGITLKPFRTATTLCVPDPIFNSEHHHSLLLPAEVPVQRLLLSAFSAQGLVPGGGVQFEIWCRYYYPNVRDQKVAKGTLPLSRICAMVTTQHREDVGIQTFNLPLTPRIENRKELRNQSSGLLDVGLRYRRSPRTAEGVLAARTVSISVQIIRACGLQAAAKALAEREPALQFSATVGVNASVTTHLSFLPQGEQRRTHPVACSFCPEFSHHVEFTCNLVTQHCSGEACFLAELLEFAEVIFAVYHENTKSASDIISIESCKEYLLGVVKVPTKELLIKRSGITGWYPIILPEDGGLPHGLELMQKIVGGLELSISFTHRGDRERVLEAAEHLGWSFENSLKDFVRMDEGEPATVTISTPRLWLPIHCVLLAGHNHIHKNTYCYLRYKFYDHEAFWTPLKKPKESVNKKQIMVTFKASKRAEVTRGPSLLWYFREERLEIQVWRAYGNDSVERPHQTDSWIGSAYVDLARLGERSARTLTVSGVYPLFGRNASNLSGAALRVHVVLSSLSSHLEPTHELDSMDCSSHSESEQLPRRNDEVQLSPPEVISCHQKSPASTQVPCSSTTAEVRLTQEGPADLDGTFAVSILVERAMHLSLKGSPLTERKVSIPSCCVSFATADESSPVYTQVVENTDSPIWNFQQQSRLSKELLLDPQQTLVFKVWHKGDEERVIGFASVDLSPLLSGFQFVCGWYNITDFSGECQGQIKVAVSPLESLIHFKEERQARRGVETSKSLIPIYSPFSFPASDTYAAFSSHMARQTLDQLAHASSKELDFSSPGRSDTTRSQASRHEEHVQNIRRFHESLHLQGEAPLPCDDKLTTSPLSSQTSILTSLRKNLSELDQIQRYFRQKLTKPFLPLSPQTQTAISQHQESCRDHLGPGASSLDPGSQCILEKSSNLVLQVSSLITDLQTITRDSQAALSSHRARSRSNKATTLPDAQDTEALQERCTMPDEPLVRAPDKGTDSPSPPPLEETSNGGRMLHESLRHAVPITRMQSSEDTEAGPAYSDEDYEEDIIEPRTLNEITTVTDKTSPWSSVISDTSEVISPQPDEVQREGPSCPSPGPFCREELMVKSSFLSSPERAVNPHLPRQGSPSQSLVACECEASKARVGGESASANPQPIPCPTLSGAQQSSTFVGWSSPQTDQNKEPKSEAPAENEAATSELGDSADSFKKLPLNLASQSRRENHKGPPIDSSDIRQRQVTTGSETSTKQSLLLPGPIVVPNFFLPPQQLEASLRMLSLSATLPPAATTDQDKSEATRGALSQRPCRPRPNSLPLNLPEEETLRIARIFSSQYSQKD

T1: V5BirA*-POC5 (UniProt Q8NA72)
T1 sequence: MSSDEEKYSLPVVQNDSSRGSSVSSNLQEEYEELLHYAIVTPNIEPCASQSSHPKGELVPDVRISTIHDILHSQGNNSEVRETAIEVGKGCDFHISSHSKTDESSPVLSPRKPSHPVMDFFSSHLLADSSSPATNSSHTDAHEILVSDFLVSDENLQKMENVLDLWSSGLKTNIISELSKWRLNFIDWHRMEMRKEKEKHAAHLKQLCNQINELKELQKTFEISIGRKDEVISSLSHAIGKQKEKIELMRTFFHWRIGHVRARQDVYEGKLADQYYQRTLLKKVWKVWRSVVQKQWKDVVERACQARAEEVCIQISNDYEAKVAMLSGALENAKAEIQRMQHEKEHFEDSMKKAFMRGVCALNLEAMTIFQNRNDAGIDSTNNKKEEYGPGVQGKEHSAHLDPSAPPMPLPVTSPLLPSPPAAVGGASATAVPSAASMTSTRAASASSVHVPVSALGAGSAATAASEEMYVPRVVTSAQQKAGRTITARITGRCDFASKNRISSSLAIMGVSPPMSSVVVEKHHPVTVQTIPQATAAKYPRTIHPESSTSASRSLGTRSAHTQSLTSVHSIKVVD


Experiments:
[1] = target: T1, V5BirA*-POC5; experiment: proximity labelling
[2] = target: V5BirA*-Centrin-2 (UniProt P41208); experiment: proximity labelling

Row | Molecule | binding [1] | binding [2]
1 | C2CD3 (endogenous) (from UniProt Q4AC94 1-2353) | binds | binds
2 | FAM161A (endogenous) (protein, UniProt Q3B820 1-660) MATSHRVAKLVASSLQTPVNPITGARVAQYEREDPLKALAAAEAILEDEEEEKVAQPAGASADLNTSFSGVDEHAPISYEDFVNFPDIHHSNEEYFKKVEELKAAHIETMAKLEKMYQDKLHLKEVQPVVIREDSLSDSSRSVSEKNSYHPVSLMTSFSEPDLGQSSSLYVSSSEEELPNLEKEYPRKNRMMTYAKELINNMWTDFCVEDYIRCKDTGFHAAEKRRKKRKEWVPTITVPEPFQMMIREQKKKEESMKSKSDIEMVHKALKKQEEDPEYKKKFRANPVPASVFLPLYHDLVKQKEERRRSLKEKSKEALLASQKPFKFIAREEQKRAAREKQLRDFLKYKKKTNRFKARPIPRSTYGSTTNDKLKEEELYRNLRTQLRAQEHLQNSSPLPCRSACGCRNPRCPEQAVKLKCKHKVRCPTPDFEDLPERYQKHLSEHKSPKLLTVCKPFDLHASPHASIKREKILADIEADEENLKETRWPYLSPRRKSPVRCAGVNPVPCNCNPPVPTVSSRGREQAVRKSEKERMREYQRELEEREEKLKKRPLLFERVAQKNARMAAEKHYSNTLKALGISDEFVSKKGQSGKVLEYFNNQETKSVTEDKESFNEEEKIEERENGEENYFIDTNSQDSYKEKDEANEESEEEKSVEESH | binds | binds
3 | CCDC15 (endogenous) (protein, UniProt Q0P6D6 1-951) MLGSMARKKPRNTSRLPLALNPLKSKDVLAVLAERNEAIVPVGAWVEPASPGSSEIPAYTSAYLIEEELKEQLRKKQEALKHFQKQVKYRVNQQIRLRKKQQLQKSYERAQKEGSIAMQSSATHLTSKRTSVFPNNLNVAIGSSRLPPSLMPGDGIEDEENQNELFQQQAQALSETMKQARHRLASFKTVIKKKGSVFPDDGRKSFLTREEVLSRKPASTGINTGIRGELPIKVHQGLLAAVPYQNYMENQELDYEEPDYEESSSLVTDEKGKEDLFGRGQQDQQAIHSEDKNKPFSRVQKVKFKNPLFVLMEEEEQKQLHFEGLQDILPEAQDYFLEAQGDLLETQGDLTGIQSVKPDTQAVEMKVQVTEPEGQAIEPEGQPIKTETQGIMLKAQSIELEEGSIVLKTQDFLPTNQALLTKNQDVLLKDHCVLPKDQSILLKYQDQDFLPRDQHVLHKDQDILPKYQDQNFLPKDQNFLSRDQHVLPKDQDILPKYQDQNFLPKDQNFLSRDQHVLPKDQNILPKYQGQDFLPKDQDFLSRDQHVLPKDWNILPKCQDQDFLPRDQGVLPKDQNILPICQDQDFLPRDQGYLPKDQNILPICQDRDFLPRDLHVLSNDQNILPKCQDQDFLPKYQKVHFKEPYSDMTDEKGREDFSLADYQCLPPKSQDQDDIKNQQPASFMREERVREELPLDYHQYVVPKIQDQDSPREQNKHIKLPSSFEKWEIARGNTPGVPLAYDRYQSGLSTEFQAPLAFQSDVDKEEDKKERQKQYLRHRRLFMDIEREQVKEQQRQKEQKKKIEKIKKKREQECYAAEQRILRMNFHEDPYSGEKLSEILAQLQLQEIKGTREKQQREKEYLRYVEALRAQIQEKMQLYNITLPPLCCCGPDFWDAHPDTCANNCIFYKNHRAYTRALHSFINSCDVPGGNSTLRVAIHNFASAHRRTLKNL | binds | binds
4 | HAUS6 (endogenous) (protein, UniProt Q7Z4H7 1-955) MSSASVTAFEKEHLWMYLQALGFEPGPATIACGKIVSHTHLGVNMFDKLNRDAFHIISYFLFQVLDQSLTKEVFKFCWPPFDQKSDTEFRKHCCEWIKRISGECGSSFPQVVGSLFLSPGGPKFIHLMYHFARFVAMKYIKSNSKNSSHHFVETFNIKPQDLHKCIARCHFARSRFLQILQRQDCVTQKYQENAQLSVKQVRNLRSECIGLENQIKKMEPYDDHSNMEEKIQKVRSLWASVNETLMFLEKEREVVSSVLSLVNQYALDGTNVAINIPRLLLDKIEKQMFQLHIGNVYEAGKLNLLTVIQLLNEVLKVMKYERCQADQARLTVDLHYLEKETKFQKERLSDLKHMRYRIKDDLTTIRHSVVEKQGEWHKKWKEFLGLSPFSLIKGWTPSVDLLPPMSPLSFDPASEEVYAKSILCQYPASLPDAHKQHNQENGCRGDSDTLGALHDLANSPASFLSQSVSSSDRNSVTVLEKDTKMGTPKEKNEAISKKIPEFEVENSPLSDVAKNTESSAFGGSLPAKKSDPFQKEQDHLVEEVARAVLSDSPQLSEGKEIKLEELIDSLGSNPFLTRNQIPRTPENLITEIRSSWRKAIEMEENRTKEPIQMDAEHREVLPESLPVLHNQREFSMADFLLETTVSDFGQSHLTEEKVISDCECVPQKHVLTSHIDEPPTQNQSDLLNKKVICKQDLECLAFTKLSETSRMETFSPAVGNRIDVMGGSEEEFMKILDHLEVSCNKPSTNKTMLWNSFQISSGISSKSFKDNDFGILHETLPEEVGHLSFNSSSSSEANFKLEPNSPMHGGTLLEDVVGGRQTTPESDFNLQALRSRYEALKKSLSKKREESYLSNSQTPERHKPELSPTPQNVQTDDTLNFLDTCDLHTEHIKPSLRTSIGERKRSLSPLIKFSPVEQRLRTTIACSLGELPNLKEEDILNKSLDAKEPPSDLTR | binds | binds
5 | CEP135 (endogenous) (protein, UniProt Q66GS9 1-1140) MTTAVERKYINIRKRLDQLGYRQTLTVECLPLVEKLFSDLVHTTESLRQSKLSAVKAEKESANFDFVLEPYKLENARLSRENNELYLELMKLREHSDQHVKELKTSLKKCARETADLKFLNNQYAHKLKLLEKESKAKNERIQQLQEKNLHAVVQTPGGKKRSIAFRRQRMQIDEPVPPSEVSSYPVPQPDDPYIADLLQVADNRIQELQQEVHQLQEKLAMMESGVRDYSKQIELREREIERLSVALDGGRSPDVLSLESRNKTNEKLIAHLNIQVDFLQQANKDLEKRIRELMETKETVTSEVVNLSNKNEKLCQELTEIDQLAQQLERHKEEVLETADKELGEAKKEIKRKLSEMQDLEETMAKLQLELNLCQKEKERLSDELLVKSDLETVVHQLEQEKQRLSKKVESFAVTERQLTLEVERMRLEHGIKRRDRSPSRLDTFLKGIEEERDYYKKELERLQHIIQRRSCSTSYSAREKSSIFRTPEKGDYNSEIHQITRERDELQRMLERFEKYMEDIQSNVKLLTAERDKLSVLYNEAQEELSALRKESTQTTAPHNIVSLMEKEKELALSDLRRIMAEKEALREKLEHIEEVSLFGKSELEKTIEHLTCVNHQLESEKYELKSKVLIMKETIESLENKLKVQAQKFSHVAGDSSHQKTEVNSLRIVNEQLQRSVDDYQHRLSIKRGELESAQAQIKILEEKIDELNLKMTSQDEEAHVMKKTIGVIDKEKDFLQETVDEKTEKIANLQENLANKEKAVAQMKIMISECESSVNQLKETLVNRDREINSLRRQLDAAHKELDEVGRSREIAFKENRRLQDDLATMARENQEISLELEAAVQEKEEMKSRVHKYITEVSRWESLMAAKEKENQDLLDRFQMLHNRAEDWEVKAHQAEGESSSVRLELLSIDTERRHLRERVELLEKEIQEHINAHHAYESQISSMAKAMSRLEEELRHQEDEKATVLNDLSSLRELCIKLDSGKDIMTQQLNSKNLEFERVVVELENVKSESDLLKKQLSNERHTVKNLESLLATNRDKEFHSHLTSHEKDTEIQLLKEKLTLSESKLTSQSRENTMLRAKVAQLQTDYDALKRQISTERYERERAIQEMRRHGLATPPLSSTLRSPSHSPEHRNV | binds | binds
